± gives the uncertainty stated by the source. Many of these values have a large error.
Assay: self-splicing fitness, log relative to wild type (ln ratio); higher = more splicing; Tetrahymena group I intron in knt gene, E. coli kanamycin selection, DiMSum; sequences stand for … in CUCUCU…GGAGGGAAAAGUUAUCAGGCAUGCACCUGGUAGCUAGUCUUUAAACCAAUAGAUUGCAUCGGUUUAAAAGGCAAGACCGUCAAAUUGCGGGAAAGGGGUCAACAGCCGUUCAGUACCAAGUCUCAGGGGAAACUUUGAGAUGGCCUUGCAAAGGGUAUGGUAAUAAGCUGACGGACAUGGUCCUAACCACGCAGCCAAGUCCUAAGUCAACAGAUCUUCUGUUGAUAUGGAUGCAGUUCACAGACUAAAUGUCGGUCGGGGAAGAUGUAUUCUUCUCAUAAGAUAUAGUCGGACCUCUCCUUAAUGGGAGCUAGCGGAUGAAGUGAUGCAACACUGGAGCCGCUGGGAACUAAUUUGUAUGCGAAAGUAUAUUGAUUAGUUUUGGAGUACUCGUGGUCG
Method in brief: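 Pooled colonies went to amplicon sequencing on an Illumina HiSeq 2500 after six replicate transformations. The plates were LB agar with 100 μg/mL carbenicillin, 50 μM IPTG and 0.2% rhamnose, with or without 25 μg/mL kanamycin, incubated overnight at 37°C or 30°C. The E. coli BL21(DE3) library had all eight P1ex-region intron nucleotides randomised, the intron placed in the knt kanamycin-resistance gene on pET-22b(+). DiMSum fitness is the error-weighted combination of replicate fold changes, kanamycin against none, normalised to wild type.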

Sequence | self-splicing fitness (ln) (30 °C) | self-splicing fitness (ln) (37 °C)
GACGAGCAAUAUUACGCACA | -2.32 ± 0.15 | -0.917 ± 0.14
CCUCAGCAAUAUUACGGUCC | – | -3.22 ± 0.62
UUUUAGCAAUAUUACGGAUC | -1.86 ± 0.53 | -2.02 ± 0.68
GUAUAGCAAUAUUACGGAAG | – | -1.92 ± 0.27
UAAAAGCAAUAUUACGGGCU | -2.79 ± 0.23 | -2 ± 0.29
CUUGAGCAAUAUUACGCCCU | -4.7 ± 0.59 | –
GGUCAGCAAUAUUACGGACU | – | -1.14 ± 0.82
AAAUAGCAAUAUUACGAGGC | – | -2.84 ± 0.6
GCUUAGCAAUAUUACGGUUA | -0.517 ± 0.11 | -0.548 ± 0.11
AUCUAGCAAUAUUACGAGGA | -2.83 ± 0.32 | -2.01 ± 0.21
AUUGAGCAAUAUUACGAUCC | – | -1.47 ± 1.2
CCCCAGCAAUAUUACGAUCG | -2.85 ± 0.13 | -0.917 ± 0.14
UCCGAGCAAUAUUACGAUCC | -2.81 ± 1.1 | –
GUCGAGCAAUAUUACGUUAA | -4.03 ± 0.74 | –
GCGCAGCAAUAUUACGCAAG | -3.82 ± 0.23 | -2.52 ± 0.15
UUAGAGCAAUAUUACGACCA | – | -1.22 ± 0.71
CUAGAGCAAUAUUACGGCGC | – | -1.38 ± 0.51
AAUGAGCAAUAUUACGUACC | -4.21 ± 0.59 | –
CUUCAGCAAUAUUACGCUCU | – | -2.99 ± 0.74
CUACAGCAAUAUUACGGGCC | -5.34 ± 1 | –
GGUGAGCAAUAUUACGAGAA | -3.13 ± 1 | –
UCAUAGCAAUAUUACGUCCC | – | -1.47 ± 1.2
ACCUAGCAAUAUUACGAACA | -2.24 ± 0.29 | 0.383 ± 0.2
AAUGAGCAAUAUUACGAAUG | – | -2.88 ± 0.53

Sequence | self-splicing fitness (ln) (30 °C) | self-splicing fitness (ln) (37 °C)
GUAUAGCAAUAUUACGAAUA | -1.55 ± 1.2 | -1.08 ± 0.93
AUCCAGCAAUAUUACGCUCC | -0.802 ± 0.12 | 0.304 ± 0.2
AAAAAGCAAUAUUACGAAGC | -3.18 ± 0.52 | –
CGGCAGCAAUAUUACGCCCG | – | -1.4 ± 0.9
CUAGAGCAAUAUUACGAAGU | – | -1.47 ± 0.87
GCUGAGCAAUAUUACGCCAA | -4.32 ± 1 | –
AGGGAGCAAUAUUACGCGAC | – | -2.79 ± 1.1
CAAUAGCAAUAUUACGUAAU | -3.35 ± 0.21 | -1.92 ± 0.18
GACGAGCAAUAUUACGCCGU | – | -4.66 ± 0.72
GAAAAGCAAUAUUACGAGGC | -2.56 ± 0.5 | -2.19 ± 0.56
CUCUAGCAAUAUUACGCUCU | -3.22 ± 0.19 | -3.77 ± 0.31
CGCGAGCAAUAUUACGGUUG | -1.73 ± 0.068 | -1.76 ± 0.12
UUGUAGCAAUAUUACGCGGU | -3.41 ± 0.74 | -1.29 ± 0.71
GGUGAGCAAUAUUACGGUAA | -3.66 ± 0.75 | –
CCUGAGCAAUAUUACGCGAC | -1.05 ± 0.67 | 0.193 ± 0.55
UGGGAGCAAUAUUACGGUGA | -4.29 ± 1.1 | –
GCAGAGCAAUAUUACGACUG | – | -1.37 ± 0.57
GGUUAGCAAUAUUACGGACC | -2.02 ± 0.69 | –
CGCUAGCAAUAUUACGAAGC | – | -2.16 ± 1.1
CGCUAGCAAUAUUACGCCUC | -1.84 ± 0.56 | -1.98 ± 0.65
CAAUAGCAAUAUUACGUAGC | -4.08 ± 0.53 | –
UCACAGCAAUAUUACGGCCG | -1.24 ± 0.1 | -0.536 ± 0.15
GAGGAGCAAUAUUACGAGUA | -3.64 ± 1 | –
UCAAAGCAAUAUUACGAAAC | – | -2.46 ± 0.54

Sequence | self-splicing fitness (ln) (30 °C) | self-splicing fitness (ln) (37 °C)
UAAUAGCAAUAUUACGUACC | -2.81 ± 0.59 | -1.39 ± 1.2
UAGAAGCAAUAUUACGGGGG | -3.59 ± 0.6 | –
AUGGAGCAAUAUUACGCCAG | – | -1.86 ± 0.69
GGGAAGCAAUAUUACGAUAG | – | -3.25 ± 0.74
CAAGAGCAAUAUUACGACUG | -1.57 ± 0.12 | -1.19 ± 0.19
AGACAGCAAUAUUACGUCGG | -2.44 ± 0.15 | -0.528 ± 0.15
GAAAAGCAAUAUUACGGCCG | -0.796 ± 0.087 | -0.537 ± 0.12
CUUCAGCAAUAUUACGCGAA | -4.06 ± 0.72 | -2.96 ± 0.61
CGUAAGCAAUAUUACGAAGA | – | -1.33 ± 0.59
AUCGAGCAAUAUUACGAUAG | -3.68 ± 0.22 | -3.23 ± 0.2
UUUGAGCAAUAUUACGUCCA | -2.33 ± 0.78 | –
UCAUAGCAAUAUUACGACCC | -1.69 ± 0.76 | -2.72 ± 1.1
UGAGAGCAAUAUUACGUUUG | -5.06 ± 0.58 | -3.69 ± 0.52
AACUAGCAAUAUUACGACCC | -1.13 ± 0.51 | –
UUGCAGCAAUAUUACGCUAC | – | -2.48 ± 0.63
UAAGAGCAAUAUUACGCCAC | -2.07 ± 0.22 | -1.59 ± 0.29
CACAAGCAAUAUUACGCCGG | -0.875 ± 0.081 | -0.35 ± 0.095
AGCGAGCAAUAUUACGUACG | -3.5 ± 1 | -2.74 ± 0.78
UGGGAGCAAUAUUACGAAAU | – | -2.88 ± 1.1
GUGAAGCAAUAUUACGCCGG | – | -0.555 ± 0.7
UGCCAGCAAUAUUACGAGGC | -4.02 ± 0.42 | -1.44 ± 0.18
AUGGAGCAAUAUUACGGAGU | -3.96 ± 0.54 | –
UCUGAGCAAUAUUACGACAA | – | -1.47 ± 1.2
CGGGAGCAAUAUUACGUACA | – | -2.96 ± 0.53

30 entries from above in another layout:
Sequence	self-splicing fitness (ln) (30 °C)	self-splicing fitness (ln) (37 °C)
UGGGAGCAAUAUUACGGUGA	-4.29 ± 1.1	–
GCAGAGCAAUAUUACGACUG	–	-1.37 ± 0.57
GGUUAGCAAUAUUACGGACC	-2.02 ± 0.69	–
CGCUAGCAAUAUUACGAAGC	–	-2.16 ± 1.1
CGCUAGCAAUAUUACGCCUC	-1.84 ± 0.56	-1.98 ± 0.65
CAAUAGCAAUAUUACGUAGC	-4.08 ± 0.53	–
UCACAGCAAUAUUACGGCCG	-1.24 ± 0.1	-0.536 ± 0.15
GAGGAGCAAUAUUACGAGUA	-3.64 ± 1	–
UCAAAGCAAUAUUACGAAAC	–	-2.46 ± 0.54
UAAUAGCAAUAUUACGUACC	-2.81 ± 0.59	-1.39 ± 1.2
UAGAAGCAAUAUUACGGGGG	-3.59 ± 0.6	–
AUGGAGCAAUAUUACGCCAG	–	-1.86 ± 0.69
GGGAAGCAAUAUUACGAUAG	–	-3.25 ± 0.74
CAAGAGCAAUAUUACGACUG	-1.57 ± 0.12	-1.19 ± 0.19
AGACAGCAAUAUUACGUCGG	-2.44 ± 0.15	-0.528 ± 0.15
GAAAAGCAAUAUUACGGCCG	-0.796 ± 0.087	-0.537 ± 0.12
CUUCAGCAAUAUUACGCGAA	-4.06 ± 0.72	-2.96 ± 0.61
CGUAAGCAAUAUUACGAAGA	–	-1.33 ± 0.59
AUCGAGCAAUAUUACGAUAG	-3.68 ± 0.22	-3.23 ± 0.2
UUUGAGCAAUAUUACGUCCA	-2.33 ± 0.78	–
UCAUAGCAAUAUUACGACCC	-1.69 ± 0.76	-2.72 ± 1.1
UGAGAGCAAUAUUACGUUUG	-5.06 ± 0.58	-3.69 ± 0.52
AACUAGCAAUAUUACGACCC	-1.13 ± 0.51	–
UUGCAGCAAUAUUACGCUAC	–	-2.48 ± 0.63
UAAGAGCAAUAUUACGCCAC	-2.07 ± 0.22	-1.59 ± 0.29
CACAAGCAAUAUUACGCCGG	-0.875 ± 0.081	-0.35 ± 0.095
AGCGAGCAAUAUUACGUACG	-3.5 ± 1	-2.74 ± 0.78
UGGGAGCAAUAUUACGAAAU	–	-2.88 ± 1.1
GUGAAGCAAUAUUACGCCGG	–	-0.555 ± 0.7
UGCCAGCAAUAUUACGAGGC	-4.02 ± 0.42	-1.44 ± 0.18

Later entries:

Sequence | self-splicing fitness (ln) (30 °C) | self-splicing fitness (ln) (37 °C)
CUCGAGCAAUAUUACGCCCG | -2.39 ± 0.64 | –
GUAGAGCAAUAUUACGUAGC | – | -2.09 ± 0.6
CCUCAGCAAUAUUACGGCCC | – | -2.72 ± 1.1
CGAUAGCAAUAUUACGUUUA | -3.31 ± 0.52 | -2.57 ± 0.21
GAGGAGCAAUAUUACGCCAG | -2.65 ± 0.66 | –
GUCGAGCAAUAUUACGCGAU | – | -3.62 ± 0.59
CCCGAGCAAUAUUACGACCC | -1.52 ± 1.2 | –
UGGGAGCAAUAUUACGUCAA | -3.27 ± 0.63 | -3.03 ± 0.53
CUGGAGCAAUAUUACGGUUC | – | 0.0694 ± 0.63
CGACAGCAAUAUUACGCCCG | – | -0.858 ± 0.57
GAUGAGCAAUAUUACGCUAA | -1.45 ± 0.61 | -3.39 ± 0.78
UGUUAGCAAUAUUACGGGGU | – | -3.49 ± 0.52
AGCUAGCAAUAUUACGUGGC | -4.6 ± 0.51 | –
CUGGAGCAAUAUUACGCGAA | 0.285 ± 1.1 | -0.375 ± 0.68
UCCUAGCAAUAUUACGCCCU | – | -0.234 ± 1.4
GAUGAGCAAUAUUACGACAA | – | -3.03 ± 0.74
AGCCAGCAAUAUUACGUCAC | -3.72 ± 0.73 | –
UAGGAGCAAUAUUACGGGUC | – | -3.81 ± 0.51
CGGAAGCAAUAUUACGUGCC | -2.79 ± 1.2 | -0.595 ± 1.4
CGUGAGCAAUAUUACGAUGC | -0.111 ± 0.43 | -2 ± 0.48
UACGAGCAAUAUUACGCUCG | -4.17 ± 0.75 | –
CGAAAGCAAUAUUACGUGGG | -2.3 ± 0.098 | -2.46 ± 0.14
UUUUAGCAAUAUUACGCUAU | -4.46 ± 0.72 | -3.43 ± 0.52
UCGGAGCAAUAUUACGCUGU | -3.24 ± 0.8 | -0.999 ± 0.52

Sequence | self-splicing fitness (ln) (30 °C) | self-splicing fitness (ln) (37 °C)
AGGCAGCAAUAUUACGUCCC | -0.81 ± 0.54 | –
UGGGAGCAAUAUUACGUACG | -2.41 ± 0.26 | -2.34 ± 0.21
CCGUAGCAAUAUUACGCAUC | -3.6 ± 0.74 | -4.15 ± 0.59
GAUAAGCAAUAUUACGGCGC | 0.0448 ± 0.13 | -0.881 ± 0.13
UUCGAGCAAUAUUACGCUUC | -4.4 ± 1 | -2.55 ± 0.62
UCGUAGCAAUAUUACGAGGG | -4.15 ± 0.73 | -1.62 ± 0.57
UUGUAGCAAUAUUACGUGUC | – | -3.53 ± 0.52
UUCAAGCAAUAUUACGCACC | -1.32 ± 1.4 | –
CGACAGCAAUAUUACGCAGC | -4.85 ± 0.72 | –
GUCAAGCAAUAUUACGCAUA | -1.58 ± 0.063 | -0.367 ± 0.06
UGCAAGCAAUAUUACGCCGC | -4.18 ± 0.72 | -2.1 ± 0.64
GGAGAGCAAUAUUACGCAGU | -2.57 ± 0.69 | -1.92 ± 0.57
UCGUAGCAAUAUUACGGGAC | -4.57 ± 1 | –
UAAGAGCAAUAUUACGCAGU | -3.51 ± 0.6 | –
UAAGAGCAAUAUUACGCUUU | -2.81 ± 0.18 | -1.85 ± 0.31
GCACAGCAAUAUUACGCCGC | -2.96 ± 0.64 | -2.86 ± 1.1
CGGGAGCAAUAUUACGCCUG | – | -1.63 ± 0.5
UUUAAGCAAUAUUACGCCCC | -2.58 ± 0.8 | -0.269 ± 0.65
GGCUAGCAAUAUUACGGGCU | -4.72 ± 0.51 | –
UUAGAGCAAUAUUACGCAUC | -3.26 ± 0.74 | -1.52 ± 0.56
GAUGAGCAAUAUUACGGCCC | -2.12 ± 0.8 | -1 ± 0.92

Source: the supplement of paper PMC7877785
